Test results from PMC4265755.
These are yes or no findings as the source states them, for the method shown. In cells and extracts the contact can be indirect. Some entries that bind do so weakly or less than the wild type.

Amino acid sequences for entries named in this document (tags omitted). Residues count along the entry.
UniProt P78423, residues 25-397: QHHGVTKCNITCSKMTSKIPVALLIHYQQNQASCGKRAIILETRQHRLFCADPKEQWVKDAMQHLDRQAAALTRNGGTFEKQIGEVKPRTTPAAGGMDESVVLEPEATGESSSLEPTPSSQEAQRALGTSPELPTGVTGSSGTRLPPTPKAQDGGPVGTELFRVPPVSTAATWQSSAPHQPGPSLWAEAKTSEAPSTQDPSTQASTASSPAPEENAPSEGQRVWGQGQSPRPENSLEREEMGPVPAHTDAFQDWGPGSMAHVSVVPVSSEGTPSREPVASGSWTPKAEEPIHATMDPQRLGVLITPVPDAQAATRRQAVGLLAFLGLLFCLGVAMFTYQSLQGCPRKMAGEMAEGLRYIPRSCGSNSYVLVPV

Molecular target: native CX3CL1 in the BRET assay (human) (UniProt P78423)
Experiment: FRET or BRET; BRET between copies of the same CX3CL1 form; methods not shown (supplementary Fig. S1)

native CX3CL1 in the BRET assay (from UniProt P78423 25-397) (ligand)
binding: binds
